Article doi:10.1101/102442
Results are given in words; binding and its absence hold for the method and conditions named. For part of these data: Binding seen in cells or lysates may run through a third protein. Some binding calls cover weakened binding; strength is not graded here. For part of these data: Where a sequence is shown, tags or fusion partners need not be part of it. Values belong to the molecule of their own block, whether it stands above or below them.

Chains of the proteins cited; added tags and fusions are not shown.
UniProt Q6WKZ8, whole entry: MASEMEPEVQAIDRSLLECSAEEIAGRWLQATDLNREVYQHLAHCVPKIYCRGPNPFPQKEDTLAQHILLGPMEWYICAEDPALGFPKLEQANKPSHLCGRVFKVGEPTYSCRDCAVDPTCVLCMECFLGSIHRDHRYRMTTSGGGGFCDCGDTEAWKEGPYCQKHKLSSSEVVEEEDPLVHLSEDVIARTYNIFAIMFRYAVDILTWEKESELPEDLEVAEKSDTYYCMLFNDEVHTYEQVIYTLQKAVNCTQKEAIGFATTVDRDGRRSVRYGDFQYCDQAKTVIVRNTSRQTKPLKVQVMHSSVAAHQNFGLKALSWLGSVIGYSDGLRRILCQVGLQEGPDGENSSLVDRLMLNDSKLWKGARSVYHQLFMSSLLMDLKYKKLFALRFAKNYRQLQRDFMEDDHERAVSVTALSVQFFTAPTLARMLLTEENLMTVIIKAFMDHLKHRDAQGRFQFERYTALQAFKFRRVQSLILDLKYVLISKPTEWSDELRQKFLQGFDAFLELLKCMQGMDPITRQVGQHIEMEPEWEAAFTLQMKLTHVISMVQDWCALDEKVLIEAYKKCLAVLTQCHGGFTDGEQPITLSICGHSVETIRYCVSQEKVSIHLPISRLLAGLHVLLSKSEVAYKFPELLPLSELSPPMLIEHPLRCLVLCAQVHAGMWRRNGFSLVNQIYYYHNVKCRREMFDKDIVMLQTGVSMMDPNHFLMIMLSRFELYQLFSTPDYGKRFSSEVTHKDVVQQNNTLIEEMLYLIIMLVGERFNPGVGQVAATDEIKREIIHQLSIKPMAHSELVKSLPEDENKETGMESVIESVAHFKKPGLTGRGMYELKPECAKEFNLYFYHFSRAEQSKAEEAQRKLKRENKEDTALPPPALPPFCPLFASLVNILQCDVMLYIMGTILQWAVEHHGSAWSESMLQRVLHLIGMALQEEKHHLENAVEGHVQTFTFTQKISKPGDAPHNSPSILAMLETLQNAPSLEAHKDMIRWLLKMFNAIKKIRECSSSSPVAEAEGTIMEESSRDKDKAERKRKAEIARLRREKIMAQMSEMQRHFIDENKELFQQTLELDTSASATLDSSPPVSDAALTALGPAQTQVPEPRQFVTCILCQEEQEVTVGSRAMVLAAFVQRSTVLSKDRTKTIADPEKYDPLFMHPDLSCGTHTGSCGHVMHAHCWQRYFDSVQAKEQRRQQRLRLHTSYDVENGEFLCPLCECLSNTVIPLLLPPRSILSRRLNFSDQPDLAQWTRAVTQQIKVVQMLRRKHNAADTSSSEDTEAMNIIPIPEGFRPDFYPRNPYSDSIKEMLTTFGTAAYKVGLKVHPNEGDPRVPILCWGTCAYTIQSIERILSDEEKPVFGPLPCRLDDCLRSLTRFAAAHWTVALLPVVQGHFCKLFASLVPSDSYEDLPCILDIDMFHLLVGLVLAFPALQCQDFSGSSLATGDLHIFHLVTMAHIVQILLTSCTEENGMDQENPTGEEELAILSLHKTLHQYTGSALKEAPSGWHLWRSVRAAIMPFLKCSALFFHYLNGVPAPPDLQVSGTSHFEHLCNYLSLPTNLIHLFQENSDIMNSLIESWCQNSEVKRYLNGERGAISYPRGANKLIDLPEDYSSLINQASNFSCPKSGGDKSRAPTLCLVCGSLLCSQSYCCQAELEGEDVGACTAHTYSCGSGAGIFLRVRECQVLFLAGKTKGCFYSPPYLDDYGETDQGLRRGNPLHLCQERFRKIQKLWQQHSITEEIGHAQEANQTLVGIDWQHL

Key:
[1] = biological target: T1, TEX19.1-YFP (HEK293 / HEK293T cells) (mouse) (UniProt Q99MV2); test: co-IP
T1 sequence: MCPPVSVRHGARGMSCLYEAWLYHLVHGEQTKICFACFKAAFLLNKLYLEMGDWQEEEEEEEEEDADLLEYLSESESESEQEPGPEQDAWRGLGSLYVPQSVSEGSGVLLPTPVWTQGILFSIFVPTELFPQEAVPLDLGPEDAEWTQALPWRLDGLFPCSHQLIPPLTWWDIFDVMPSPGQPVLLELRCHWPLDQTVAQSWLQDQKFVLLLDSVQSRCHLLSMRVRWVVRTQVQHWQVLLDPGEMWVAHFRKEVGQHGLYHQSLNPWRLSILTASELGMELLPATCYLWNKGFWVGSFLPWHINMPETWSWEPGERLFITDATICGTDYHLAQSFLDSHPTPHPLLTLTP

[2] = biological target: T2, TEX19.1-YFP (mouse ESCs) (mouse) (UniProt Q99MV2); test: co-IP
T2 sequence: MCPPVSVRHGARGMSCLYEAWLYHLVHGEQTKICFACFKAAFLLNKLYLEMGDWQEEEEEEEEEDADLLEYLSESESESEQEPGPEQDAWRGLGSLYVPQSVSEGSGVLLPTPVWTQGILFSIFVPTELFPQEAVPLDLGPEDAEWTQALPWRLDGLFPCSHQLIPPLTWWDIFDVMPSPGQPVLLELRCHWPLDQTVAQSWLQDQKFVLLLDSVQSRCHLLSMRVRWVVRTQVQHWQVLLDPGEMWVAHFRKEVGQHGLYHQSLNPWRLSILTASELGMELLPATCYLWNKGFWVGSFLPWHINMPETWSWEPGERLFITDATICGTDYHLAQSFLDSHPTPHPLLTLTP

[3] = biological target: UBR2 (endogenous, mouse ESCs) (mouse (endogenous in mouse ESCs)) (UniProt Q6WKZ8); test: SEC

binding [1]: binds
Molecule: FLAG-UBR2 (from UniProt Q6WKZ8 1-1755) (enzyme)

binding [2]: binds
Molecule: UBR2 (endogenous, mouse ESCs) (from UniProt Q6WKZ8 1-1755) (enzyme)

binding [3]: binds
B1: TEX19.1 (endogenous, mouse ESCs) (protein, UniProt Q99MV2 1-351)
chain: MCPPVSVRHGARGMSCLYEAWLYHLVHGEQTKICFACFKAAFLLNKLYLEMGDWQEEEEEEEEEDADLLEYLSESESESEQEPGPEQDAWRGLGSLYVPQSVSEGSGVLLPTPVWTQGILFSIFVPTELFPQEAVPLDLGPEDAEWTQALPWRLDGLFPCSHQLIPPLTWWDIFDVMPSPGQPVLLELRCHWPLDQTVAQSWLQDQKFVLLLDSVQSRCHLLSMRVRWVVRTQVQHWQVLLDPGEMWVAHFRKEVGQHGLYHQSLNPWRLSILTASELGMELLPATCYLWNKGFWVGSFLPWHINMPETWSWEPGERLFITDATICGTDYHLAQSFLDSHPTPHPLLTLTP
